According to patent publication US6087121A, “Chemiluminescent detection of heme proteins in biological samples” (Mayo Foundation for Medical Education and Research, priority 1999, dated 2000):

Tested on: Hb
Experiment: Performance characteristics of Hb assay (precision, linearity, recovery, stability)
Set-up: species or system human
Method: Ultrafiltered urine was prepared from a pool of fresh urine specimens by ultrafiltration through Centriprep-10 at 3,000×g in a Beckman J2-HC centrifuge (Beckman Instruments, Calif.). This treatment separates all biomolecules with molecular weight greater than 10,000 daltons so that the ultrafiltered urine is devoid of Hemoglobin (Hb) and Myoglobin (Mb). Stock standards were prepared with the ultrafiltrate containing known quantities of, either purified Hb or washed, packed RBCS. A cell count of the stock RBC standard was determined by the Yellow IRIS® Automated Imaging System (Independent Research Imaging Systems, Chatsworth, Calif.). Cells in urine are imaged under laminar flow conditions. Up to 80 images of cells are captured using a high speed charged-coupled device camera. Cell images are then identified and quantified. Serial dilutions of the stock standards were made with the ultrafiltrate. All chemiluminescence measurements were determined using a Berthold AutoLumat, LB 953 (EG&G Berthold, Aliquippa, Pa.).
Fresh urine specimens were obtained in routine commercial collection vessels. The specimens were, either, analyzed immediately or stored at 4° C. until analysis. The urine samples were prepared for analysis by adding CTAC to produce a 0.1% solution, unless otherwise noted, in order to lyse the erythrocytes, thereby releasing hemoglobin. The assays were performed in a 75×12 mm polystyrene tube. The assay solutions were prepared by adding to each tube 294 μL of high ionic strength buffer, 5.0 μL of the prepared urine samples or standards, and […] of substrate (0.4 mM solution of 7-DNH), unless otherwise noted. The emission of light was measured over five seconds following automatic injection of 300 μL of 5% hydrogen peroxide (pH 3.25). The standard curve was obtained by plotting chemiluminescence emission in Relative Light Units (RLU) versus Hb concentration (μg/mL) or number of RBCs (#RBC/high power field (hpf)). Cell counts were determined with the Yellow Iris® instrument and confirmed by a manual hemocytometer count.
Intra-assay imprecisions were calculated by performing the assays on the same day and determining the mean and standard deviation of ten replicates. Inter-assay imprecisions were calculated by performing the assays on the Hb standard samples made fresh on different days. The mean and standard deviation of six analyses of each standard were performed once daily. Intra- and inter-assay imprecision were calculated from analysis of three standards at three concentration levels which spanned the range of concentrations at which the assay was accurate. Within run imprecisions, expressed as % coefficient of variation (CV), were a 4.9, 6.2, and 0.5% for low, medium and high Hb levels, respectively (Table 3). Intra-assay imprecisions for the RBC standard were slightly higher; 9.9, 7.4, 5.7% for low, medium and high numbers of RBCs in the urine (Table 4). Intra-assay imprecisions for Hb concentration were 6.86, 7.23 and 6.06 for low, medium and high concentration of Hb, respectively.
The standard curve for the assay is linear down to 60 ng/mL and up to 250 μg/mL Hb. […]
The effect of measurement time on the reproducibility of the assay was determined by measuring six duplicate samples treated with detergent and substrate at aspecific time intervals. The first sample was assayed at zero time with the remaining samples measured at 5 minutes intervals up to 25 minutes. […]

Hemoglobin: human hemoglobin purchased from Sigma
Recovery of Hb spiked into ultrafiltered urine (300 ng/mL): 96.5% | Recovery of Hb spiked into ultrafiltered urine (62500 ng/mL): 101.3% | Recovery of Hb spiked into ultrafiltered urine (97670 ng/mL): 97.7% | lower limit of linear/working range for Hb (standard curve): 60 ng/mL | upper limit of linear/working range for Hb (standard curve): 250 µg/mL
